# Assay results from the supplement of paper PMC8728848.
# The other results are listed elsewhere or left out.
# B1: PhypaEULS3 (Physcomitrella patens) (protein)
# chain: MLPVRLHCKADPNFNLAAVPGQGPVMVPFSPNDDFQVWYKDVTMSTRVKDETGSSAFSLINKATGQALRHAPEDLAQCLLADYDSNALDQTVLWTMSEDMGQGYCCIRLASQITRNLDVFRGDKKSGGVKEGSPVITFAWKKQDNQIWKMITAILEQKLISEEDLNSAVDHHHHHH
# Experiments:
# Assay in all cases: glycan array binding signal (z-score within array); higher = stronger binding
# Settings in all cases: glycan notation: IUPAC condensed, linker removed
# [1] = molecular target: GalNAc(b1-4)GlcNAc(b1-2)Man
# Procedure, shortened: (§1)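 From the Consortium for Functional Glycomics database, 3228 arrays were curated, keeping only those whose protein sequence was available. Binding is given as a within-array Z-score averaged across arrays sharing a protein sequence and across linkers. Negative Z-scores can be read as non-binding.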
# [2] = molecular target: GalNAc(b1-4)GlcNAc(b1-2)Man(a1-3)[GalNAc(b1-4)GlcNAc(b1-2)Man(a1-6)]Man(b1-4)GlcNAc(b1-4)GlcNAc
# Procedure, shortened: as §1
# [3] = molecular target: GalNAc(b1-4)GlcNAc(b1-3)GalNAc(b1-4)GlcNAc
# Procedure, shortened: as §1
# GalNAc(b1-4)GlcNAc6S = molecular target: GalNAc(b1-4)GlcNAc6S
# Procedure, shortened: as §1
# GalNAc(b1-6)GalNAc = molecular target: GalNAc(b1-6)GalNAc
# Procedure, shortened: as §1
# GalNAc3S(b1-4)GlcNAc = molecular target: GalNAc3S(b1-4)GlcNAc
# Procedure, shortened: as §1
# GalNAc3S(b1-4)GlcNAc3S = molecular target: GalNAc3S(b1-4)GlcNAc3S
# Procedure, shortened: as §1
# [4] = molecular target: GalNAc3S(b1-4)[Fuc(a1-3)]GlcNAc
# Procedure, shortened: as §1
# GalNAc4S6S(b1-4)GlcNAc = molecular target: GalNAc4S6S(b1-4)GlcNAc
# Procedure, shortened: as §1
# GalNAc6S(b1-4)GlcNAc = molecular target: GalNAc6S(b1-4)GlcNAc
# Procedure, shortened: as §1
# Glc(a1-4)Glc = molecular target: Glc(a1-4)Glc
# Procedure, shortened: as §1
# [5] = molecular target: Glc(a1-4)Glc(a1-4)Glc(a1-4)Glc
# Procedure, shortened: as §1
# Glc(a1-6)Glc(a1-6)Glc = molecular target: Glc(a1-6)Glc(a1-6)Glc
# Procedure, shortened: as §1
# [6] = molecular target: Glc(a1-6)Glc(a1-6)Glc(a1-6)Glc
# Procedure, shortened: as §1
# Glc(b1-4)Glc = molecular target: Glc(b1-4)Glc
# Procedure, shortened: as §1
# Glc(b1-6)Glc = molecular target: Glc(b1-6)Glc
# Procedure, shortened: as §1
# GlcA(b1-3)Gal = molecular target: GlcA(b1-3)Gal
# Procedure, shortened: as §1
# GlcA(b1-3)GlcNAc = molecular target: GlcA(b1-3)GlcNAc
# Procedure, shortened: as §1
# GlcA(b1-6)Gal = molecular target: GlcA(b1-6)Gal
# Procedure, shortened: as §1
# [7] = molecular target: GlcA3S(b1-3)Gal(b1-4)GlcNAc(b1-2)Man
# Procedure, shortened: as §1
# [8] = molecular target: GlcA3S(b1-3)Gal(b1-4)GlcNAc(b1-3)Gal(b1-4)Glc
# Procedure, shortened: as §1
# [9] = molecular target: GlcNAc(a1-3)Gal(b1-4)GlcNAc
# Procedure, shortened: as §1
# [10] = molecular target: GlcNAc(a1-4)Gal(b1-3)GlcNAc
# Procedure, shortened: as §1
# [11] = molecular target: GlcNAc(a1-4)Gal(b1-4)GalNAc
# Procedure, shortened: as §1
# [12] = molecular target: GlcNAc(a1-4)Gal(b1-4)GlcNAc
# Procedure, shortened: as §1
# [13] = molecular target: GlcNAc(a1-4)Gal(b1-4)GlcNAc(b1-3)Gal(b1-4)Glc
# Procedure, shortened: as §1
# [14] = molecular target: GlcNAc(a1-4)Gal(b1-4)GlcNAc(b1-3)Gal(b1-4)GlcNAc
# Procedure, shortened: as §1
# [15] = molecular target: GlcNAc(a1-4)Gal(b1-4)GlcNAc(b1-3)Gal(b1-4)GlcNAc(b1-3)Gal(b1-4)GlcNAc
# Procedure, shortened: as §1
# [16] = molecular target: GlcNAc(a1-4)Gal(b1-4)GlcNAc(b1-3)Gal(b1-4)[Fuc(a1-3)]GlcNAc(b1-3)Gal(b1-4)[Fuc(a1-3)]GlcNAc
# Procedure, shortened: as §1
# [17] = molecular target: GlcNAc(a1-6)Gal(b1-4)GlcNAc
# Procedure, shortened: as §1
# [18] = molecular target: GlcNAc(b1-2)Gal(b1-3)GalNAc
# Procedure, shortened: as §1
# [19] = molecular target: GlcNAc(b1-2)Man(a1-3)[GlcNAc(b1-2)Man(a1-6)]Man(b1-4)GlcNAc(b1-4)GlcNAc
# Procedure, shortened: as §1
# [20] = molecular target: GlcNAc(b1-2)Man(a1-3)[GlcNAc(b1-2)Man(a1-6)]Man(b1-4)GlcNAc(b1-4)[Fuc(a1-6)]GlcNAc
# Procedure, shortened: as §1
# [21] = molecular target: GlcNAc(b1-2)Man(a1-3)[GlcNAc(b1-4)][GlcNAc(b1-2)Man(a1-6)]Man(b1-4)GlcNAc(b1-4)GlcNAc
# Procedure, shortened: as §1
# [22] = molecular target: GlcNAc(b1-2)Man(a1-3)[GlcNAc(b1-4)][GlcNAc(b1-2)Man(a1-6)]Man(b1-4)GlcNAc(b1-4)[Fuc(a1-6)]GlcNAc
# Procedure, shortened: as §1
# [23] = molecular target: GlcNAc(b1-2)[GlcNAc(b1-4)]Man(a1-3)[GlcNAc(b1-2)Man(a1-6)]Man(b1-4)GlcNAc(b1-4)GlcNAc
# Procedure, shortened: as §1
# [24] = molecular target: GlcNAc(b1-2)[GlcNAc(b1-4)]Man(a1-3)[GlcNAc(b1-4)][GlcNAc(b1-2)Man(a1-6)]Man(b1-4)GlcNAc(b1-4)GlcNAc
# Procedure, shortened: as §1
# [25] = molecular target: GlcNAc(b1-2)[GlcNAc(b1-4)]Man(a1-3)[GlcNAc(b1-4)][GlcNAc(b1-2)[GlcNAc(b1-6)]Man(a1-6)]Man(b1-4)GlcNAc(b1-4)GlcNAc
# Procedure, shortened: as §1
# [26] = molecular target: GlcNAc(b1-2)[GlcNAc(b1-4)]Man(a1-3)[GlcNAc(b1-4)][GlcNAc(b1-2)[GlcNAc(b1-6)]Man(a1-6)]Man(b1-4)GlcNAc(b1-4)[Fuc(a1-6)]GlcNAc
# Procedure, shortened: as §1
# [27] = molecular target: GlcNAc(b1-2)[GlcNAc(b1-6)]Man(a1-6)[GlcNAc(b1-2)Man(a1-3)]Man(b1-4)GlcNAc(b1-4)GlcNAc
# Procedure, shortened: as §1
# [28] = molecular target: GlcNAc(b1-2)[GlcNAc(b1-6)]Man(a1-6)[GlcNAc(b1-2)Man(a1-3)]Man(b1-4)GlcNAc(b1-4)[Fuc(a1-6)]GlcNAc
# Procedure, shortened: as §1
# [29] = molecular target: GlcNAc(b1-2)[GlcNAc(b1-6)]Man(a1-6)[GlcNAc(b1-4)][GlcNAc(b1-2)Man(a1-3)]Man(b1-4)GlcNAc(b1-4)GlcNAc
# Procedure, shortened: as §1
# GlcNAc(b1-3)Fuc = molecular target: GlcNAc(b1-3)Fuc
# Procedure, shortened: as §1
# GlcNAc(b1-3)Gal = molecular target: GlcNAc(b1-3)Gal
# Procedure, shortened: as §1
# [30] = molecular target: GlcNAc(b1-3)Gal(b1-3)GalNAc
# Procedure, shortened: as §1
binder,measurement,setting,value
B1,glycan array binding signal (z-score),[1],-0.619
same,glycan array binding signal (z-score),[2],0.448
same,glycan array binding signal (z-score),[3],-0.097
same,glycan array binding signal (z-score),GalNAc(b1-4)GlcNAc6S,1.29
same,glycan array binding signal (z-score),GalNAc(b1-6)GalNAc,0.575
same,glycan array binding signal (z-score),GalNAc3S(b1-4)GlcNAc,-0.059
same,glycan array binding signal (z-score),GalNAc3S(b1-4)GlcNAc3S,2.12
same,glycan array binding signal (z-score),[4],-0.804
same,glycan array binding signal (z-score),GalNAc4S6S(b1-4)GlcNAc,2.6
same,glycan array binding signal (z-score),GalNAc6S(b1-4)GlcNAc,1.13
same,glycan array binding signal (z-score),Glc(a1-4)Glc,-0.811
same,glycan array binding signal (z-score),[5],-1.9
same,glycan array binding signal (z-score),Glc(a1-6)Glc(a1-6)Glc,-0.255
same,glycan array binding signal (z-score),[6],0.847
same,glycan array binding signal (z-score),Glc(b1-4)Glc,0.754
same,glycan array binding signal (z-score),Glc(b1-6)Glc,-1.38
same,glycan array binding signal (z-score),GlcA(b1-3)Gal,-1.49
same,glycan array binding signal (z-score),GlcA(b1-3)GlcNAc,0.133
same,glycan array binding signal (z-score),GlcA(b1-6)Gal,-2.24
same,glycan array binding signal (z-score),[7],0.278
same,glycan array binding signal (z-score),[8],-0.623
same,glycan array binding signal (z-score),[9],-0.249
same,glycan array binding signal (z-score),[10],-0.942
same,glycan array binding signal (z-score),[11],-1.15
same,glycan array binding signal (z-score),[12],0.207
same,glycan array binding signal (z-score),[13],0.185
same,glycan array binding signal (z-score),[14],0.005
same,glycan array binding signal (z-score),[15],-0.022
same,glycan array binding signal (z-score),[16],-1.64
same,glycan array binding signal (z-score),[17],-0.941
same,glycan array binding signal (z-score),[18],-1.03
same,glycan array binding signal (z-score),[19],0.309
same,glycan array binding signal (z-score),[20],0.303
same,glycan array binding signal (z-score),[21],1.08
same,glycan array binding signal (z-score),[22],0.097
same,glycan array binding signal (z-score),[23],0.948
same,glycan array binding signal (z-score),[24],0.758
same,glycan array binding signal (z-score),[25],0.259
same,glycan array binding signal (z-score),[26],-0.705
same,glycan array binding signal (z-score),[27],0.239
same,glycan array binding signal (z-score),[28],-0.207
same,glycan array binding signal (z-score),[29],0.306
same,glycan array binding signal (z-score),GlcNAc(b1-3)Fuc,-1.99
same,glycan array binding signal (z-score),GlcNAc(b1-3)Gal,-0.333
same,glycan array binding signal (z-score),[30],-1.76

# Rewritten as tab-separated lines: entries from further up
binder	measurement	setting	value
B1	glycan array binding signal (z-score)	[13]	0.185
same	glycan array binding signal (z-score)	[14]	0.005
